Results are given in words; binding and its absence hold for the method and conditions named. Binding seen in cells or lysates may run through a third protein. Some binding calls cover weakened binding; strength is not graded here. For part of these data: Sequences can lack the tags named with a protein.
Assays:
[1] = molecular target: T1, bestrophin-1-GFP fusion construct (hBest-pEGFP-N1) (human) (UniProt O76090); test: co-IP; CHO, COS-7 and HEK-293 cells co-transfected with bestrophin-1-GFP and β3-subunits, or with β3-subunits and GFP; IP with anti-GFP antibodies, blots anti-β3 and anti-GFP
T1 sequence: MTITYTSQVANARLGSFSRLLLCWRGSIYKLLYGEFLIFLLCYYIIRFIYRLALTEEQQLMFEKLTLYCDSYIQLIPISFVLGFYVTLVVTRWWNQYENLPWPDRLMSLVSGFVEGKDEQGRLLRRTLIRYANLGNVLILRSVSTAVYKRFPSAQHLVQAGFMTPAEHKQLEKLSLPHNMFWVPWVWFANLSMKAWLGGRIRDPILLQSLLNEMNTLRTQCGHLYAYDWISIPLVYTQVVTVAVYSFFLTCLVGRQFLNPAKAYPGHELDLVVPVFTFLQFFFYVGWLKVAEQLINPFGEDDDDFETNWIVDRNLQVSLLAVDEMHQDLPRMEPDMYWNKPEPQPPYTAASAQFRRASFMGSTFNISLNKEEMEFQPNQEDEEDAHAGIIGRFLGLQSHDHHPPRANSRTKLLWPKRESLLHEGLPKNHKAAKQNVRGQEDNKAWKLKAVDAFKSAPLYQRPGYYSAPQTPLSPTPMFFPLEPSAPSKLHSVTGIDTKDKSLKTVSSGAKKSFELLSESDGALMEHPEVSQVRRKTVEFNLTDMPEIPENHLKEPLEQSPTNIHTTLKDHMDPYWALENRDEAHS

[2] = molecular target: calcium channel, voltage-dependent, L-type, α1D subunit CaV1.3 (human, untagged) (human) (UniProt Q01668); test: co-IP; CHO cells co-transfected with CaV1.3 (GFP fusion or untagged) and β3-subunits; lysate in 1% Nonidet-P40, 0.5% deoxycholate, 150 mM NaCl; IP with anti-β3 antibody, blot for CaV1.3, or IP of CaV1.3, blot for β3
[3] = molecular target: calcium channel, voltage-dependent, β3-subunit (rat, untagged, β3-pCMV) (Rattus norvegicus) (UniProt P54287); test: as above

| binding [1] | binding [2] | binding [3] | Substance |
| --- | --- | --- | --- |
| binds | binds | – | calcium channel, voltage-dependent, β3-subunit (rat, untagged, β3-pCMV) (from UniProt P54287 1-484) |
| – | – | binds | CaV1.3-GFP fusion construct (human α1D subunit CaV1.3, eGFP-tagged) (from UniProt Q01668-2 1-2181) |

From PMC3084833
